These are yes or no findings as the source states them, for the method shown. For some of these results: In cells and extracts the contact can be indirect. Some entries that bind do so weakly or less than the wild type.
Key:
[1] = molecular target: Rictor, endogenous protein of 293T cells (human) (UniProt Q6R327); assay: reciprocal co-immunoprecipitation from 293T cell lysates, western blot
[2] = molecular target: Rictor, endogenous protein of murine BM cells (mouse) (UniProt Q6QI06); assay: summary sentence of Example 1 (co-immunoprecipitation)
[3] = molecular target: STAT3, endogenous protein of murine BM cells (mouse) (UniProt P42227); assay: immunoprecipitation from BM cell lysates, immunoblot (FIGS. 2A-2E legend)
[4] = molecular target: Rictor, endogenous protein of murine BM cells (mouse) (UniProt Q6QI06); assay: reciprocal co-immunoprecipitation from murine BM cell lysates, western blot

The chains behind the UniProt entries cited, without tags or fusion partners. Where a name states a change or a piece, a line headed by the entry shows the natural chain unless it says otherwise. Residues count along the entry.
UniProt Q6R327: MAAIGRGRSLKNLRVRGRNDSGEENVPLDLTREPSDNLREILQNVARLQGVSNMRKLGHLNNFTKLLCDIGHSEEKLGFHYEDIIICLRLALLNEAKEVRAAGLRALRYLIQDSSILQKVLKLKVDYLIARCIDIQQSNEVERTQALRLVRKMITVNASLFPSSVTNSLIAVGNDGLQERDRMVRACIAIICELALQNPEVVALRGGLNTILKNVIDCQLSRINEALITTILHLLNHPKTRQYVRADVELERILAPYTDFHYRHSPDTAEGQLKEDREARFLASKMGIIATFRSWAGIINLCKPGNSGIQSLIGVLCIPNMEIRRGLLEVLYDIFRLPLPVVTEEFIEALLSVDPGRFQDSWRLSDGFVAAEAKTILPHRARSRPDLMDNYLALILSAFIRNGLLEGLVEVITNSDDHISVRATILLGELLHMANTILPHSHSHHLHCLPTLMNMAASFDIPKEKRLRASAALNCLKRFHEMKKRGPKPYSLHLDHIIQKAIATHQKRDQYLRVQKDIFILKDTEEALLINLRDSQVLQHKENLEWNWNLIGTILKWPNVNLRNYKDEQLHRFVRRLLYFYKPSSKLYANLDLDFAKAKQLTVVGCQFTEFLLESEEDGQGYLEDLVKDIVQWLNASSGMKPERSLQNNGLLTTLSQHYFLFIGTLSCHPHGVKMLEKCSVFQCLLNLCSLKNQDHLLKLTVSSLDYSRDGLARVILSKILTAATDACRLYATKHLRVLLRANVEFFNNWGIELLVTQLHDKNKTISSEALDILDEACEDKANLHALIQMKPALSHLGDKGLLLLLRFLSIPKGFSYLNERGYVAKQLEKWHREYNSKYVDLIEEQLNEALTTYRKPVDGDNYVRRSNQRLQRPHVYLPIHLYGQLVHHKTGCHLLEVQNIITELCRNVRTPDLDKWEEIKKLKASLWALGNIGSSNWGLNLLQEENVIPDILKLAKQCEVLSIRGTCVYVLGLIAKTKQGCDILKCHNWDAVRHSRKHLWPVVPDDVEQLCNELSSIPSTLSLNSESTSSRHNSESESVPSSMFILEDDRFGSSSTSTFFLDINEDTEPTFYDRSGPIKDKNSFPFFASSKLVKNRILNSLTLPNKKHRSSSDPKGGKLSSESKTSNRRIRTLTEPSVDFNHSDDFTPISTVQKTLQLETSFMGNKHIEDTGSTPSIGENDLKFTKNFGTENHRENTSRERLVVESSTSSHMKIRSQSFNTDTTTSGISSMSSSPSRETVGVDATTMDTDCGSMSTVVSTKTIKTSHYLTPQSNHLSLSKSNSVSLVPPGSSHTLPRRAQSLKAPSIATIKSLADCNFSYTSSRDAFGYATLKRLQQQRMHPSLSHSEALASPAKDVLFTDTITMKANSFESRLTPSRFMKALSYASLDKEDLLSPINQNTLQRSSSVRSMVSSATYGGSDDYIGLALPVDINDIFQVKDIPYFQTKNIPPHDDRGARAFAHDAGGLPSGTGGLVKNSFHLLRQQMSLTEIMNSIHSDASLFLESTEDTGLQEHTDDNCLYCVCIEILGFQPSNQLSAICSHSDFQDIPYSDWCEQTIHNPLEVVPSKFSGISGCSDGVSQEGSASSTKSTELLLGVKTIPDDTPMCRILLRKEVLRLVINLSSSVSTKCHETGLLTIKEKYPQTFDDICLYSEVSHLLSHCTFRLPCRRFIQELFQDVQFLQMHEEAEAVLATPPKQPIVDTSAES
UniProt P42227, residues 2-770: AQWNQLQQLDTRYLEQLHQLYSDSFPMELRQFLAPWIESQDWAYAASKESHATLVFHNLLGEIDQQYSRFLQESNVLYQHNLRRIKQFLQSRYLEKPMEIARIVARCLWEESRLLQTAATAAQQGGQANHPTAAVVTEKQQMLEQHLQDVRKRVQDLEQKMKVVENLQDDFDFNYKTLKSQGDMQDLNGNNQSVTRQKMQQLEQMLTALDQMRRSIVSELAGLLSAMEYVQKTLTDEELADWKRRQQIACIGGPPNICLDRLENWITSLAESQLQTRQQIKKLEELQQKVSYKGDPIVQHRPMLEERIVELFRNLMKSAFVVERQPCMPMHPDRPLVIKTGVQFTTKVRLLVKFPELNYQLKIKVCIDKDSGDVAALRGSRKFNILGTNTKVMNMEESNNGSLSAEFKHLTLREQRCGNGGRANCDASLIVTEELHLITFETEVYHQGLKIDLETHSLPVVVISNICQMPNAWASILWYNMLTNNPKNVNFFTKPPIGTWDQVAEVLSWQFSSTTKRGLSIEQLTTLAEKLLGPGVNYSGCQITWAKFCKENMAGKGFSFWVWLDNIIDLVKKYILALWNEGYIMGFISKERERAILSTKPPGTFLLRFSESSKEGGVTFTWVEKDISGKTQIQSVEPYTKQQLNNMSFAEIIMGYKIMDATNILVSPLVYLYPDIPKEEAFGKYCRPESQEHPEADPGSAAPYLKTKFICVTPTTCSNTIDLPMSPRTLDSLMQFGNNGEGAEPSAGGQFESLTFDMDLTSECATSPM
UniProt Q86TY3, residues 28-774: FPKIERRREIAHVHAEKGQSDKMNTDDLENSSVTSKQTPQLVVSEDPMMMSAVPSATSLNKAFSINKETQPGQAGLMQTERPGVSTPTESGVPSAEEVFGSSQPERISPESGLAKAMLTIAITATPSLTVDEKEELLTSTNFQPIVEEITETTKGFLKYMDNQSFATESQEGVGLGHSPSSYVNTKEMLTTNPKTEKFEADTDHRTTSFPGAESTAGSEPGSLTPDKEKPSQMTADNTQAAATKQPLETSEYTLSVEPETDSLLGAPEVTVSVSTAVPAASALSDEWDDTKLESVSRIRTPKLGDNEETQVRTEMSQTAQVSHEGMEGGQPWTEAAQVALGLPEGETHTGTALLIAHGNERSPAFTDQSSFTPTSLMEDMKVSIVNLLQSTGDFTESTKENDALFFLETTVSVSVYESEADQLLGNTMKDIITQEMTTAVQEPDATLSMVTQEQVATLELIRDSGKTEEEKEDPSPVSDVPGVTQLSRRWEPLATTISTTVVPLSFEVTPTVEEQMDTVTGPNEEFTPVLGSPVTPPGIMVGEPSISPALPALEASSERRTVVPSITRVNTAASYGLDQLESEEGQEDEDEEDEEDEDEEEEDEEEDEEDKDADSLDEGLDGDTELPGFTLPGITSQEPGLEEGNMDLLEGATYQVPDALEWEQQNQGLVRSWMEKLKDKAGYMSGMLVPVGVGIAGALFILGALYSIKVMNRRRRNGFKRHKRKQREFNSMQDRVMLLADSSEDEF
UniProt Q8BT18, residues 48-775: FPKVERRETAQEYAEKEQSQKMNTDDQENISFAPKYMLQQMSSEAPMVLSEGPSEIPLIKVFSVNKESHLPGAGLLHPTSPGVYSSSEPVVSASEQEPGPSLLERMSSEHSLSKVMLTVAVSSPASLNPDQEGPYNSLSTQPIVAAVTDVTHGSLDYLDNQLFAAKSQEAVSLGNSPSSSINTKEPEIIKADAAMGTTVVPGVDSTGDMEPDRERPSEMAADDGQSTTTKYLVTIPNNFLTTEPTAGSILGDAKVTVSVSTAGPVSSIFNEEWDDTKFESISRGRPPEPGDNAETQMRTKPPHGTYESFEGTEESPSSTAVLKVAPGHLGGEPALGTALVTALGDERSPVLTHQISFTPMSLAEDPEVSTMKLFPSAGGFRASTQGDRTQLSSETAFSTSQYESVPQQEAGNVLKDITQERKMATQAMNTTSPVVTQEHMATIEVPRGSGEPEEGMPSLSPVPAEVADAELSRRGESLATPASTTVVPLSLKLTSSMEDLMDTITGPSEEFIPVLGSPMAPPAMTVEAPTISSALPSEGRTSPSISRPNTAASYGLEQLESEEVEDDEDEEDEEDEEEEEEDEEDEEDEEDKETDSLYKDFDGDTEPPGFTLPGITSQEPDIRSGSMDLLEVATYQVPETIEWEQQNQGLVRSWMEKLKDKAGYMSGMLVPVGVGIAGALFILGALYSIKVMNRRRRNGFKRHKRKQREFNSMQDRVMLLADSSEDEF

Q: “Suppressor of AKT (SAKT), endogenous protein of 293T cells (from UniProt Q86TY3 28-774) (receptor)” was tested. Which binding [1] did it give?
A: Its binding is “binds”.

Q: Which results are given for “Suppressor of AKT (SAKT), endogenous protein of murine bone marrow (BM) cells (from UniProt Q8BT18 48-775) (receptor)”?
A: binding [2]: binds; binding [3]: binds; binding [4]: binds
